Results deposited as PubChem BioAssay AID602196 (INSERM, 2012)
This is one part, drawn at random, of about 23,000 reagents tested. Over the whole deposit, 455 (2%) are marked active. 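Active includes both protection and sensitisation; some change values fall well beyond the stated -50 to +50 range.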 Unmarked entries are inactive. The numbers tell different reagents against one gene apart. No sequences are given here. Not given: the amount of reagent.

- Screen: 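Knock-downs that protect lung cancer cells from cisplatin or sensitise them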
- Cell system: human A549 lung cancer cells
- Reagent: siRNA pair against human genes
- Timing: 48 h transfection before cisplatin; time from cisplatin to read-out not stated
- Challenge: cisplatin at a dose killing half of control-siRNA cells; exact dose and duration not given
- Read-out: 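Cisplatin cell death as a shift from the 50% death seen with control siRNA; siRNAs toxic or growth-blocking alone scored 0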
- Reading the numbers: two-siRNA summed score (-2 to +2): higher = both siRNAs protect from cisplatin killing; -2 means both sensitise; mean protection from cisplatin (shift in death) and protection from cisplatin (shift in death), siRNA C and protection from cisplatin (shift in death), siRNA D: higher = protection from cisplatin killing
- Active means: 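Each siRNA scores 0 if harmful alone by LDH or WST-1, otherwise +1 if it reduces and -1 if it increases cisplatin killing; a gene is active when both siRNAs agree (sum +2 or -2)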
- Calls: active = both siRNAs shift cisplatin killing the same way; inactive = no consistent shift, or siRNA harmful alone

Target gene	reagent no.	two-siRNA summed score (-2 to +2)	mean protection from cisplatin (shift in death) (%)	protection from cisplatin (shift in death), siRNA C (%)	protection from cisplatin (shift in death), siRNA D (%)
OR1E2	1	1	15.1	7.1	23.1
LINC02783	1	0	2.3	-6.3	11
NOSIP	1	0	-9.1	-12.7	-5.6
LINC01558	1	0	4.9	13.6	-3.9
CA4	1	0	4.7	6.1	3.2
LYPD5	1	0	-3.6	26.4	-33.6
PIGZ	1	0	-2.6	-1.9	-3.3
TIPARP	1	0	4.8	-3.5	13.2
APPBP2	1	1	14.1	8	20.2
SLC6A13	1	0	-4.4	8.1	-16.9
AKNA	1	0	6.6	3.9	9.3
FLJ34433	1	2 (active)	27.5	20.7	34.3
RASA4	1	-1	-5.9	11.5	-23.3
IL38	1	0	15.1	17.3	12.9
FBXL4	1	0	-9.4	10.7	-29.5
SSRP1	1	1	3.3	-5.3	11.9
CSRNP2	1	0	6.8	13.2	0.4
COG7	1	0	1.8	3.2	0.4
LOC387940	1	0	2.9	5	0.9
EMC6	1	0	5.8	1.6	10
EMC6	2	1	24.6	18.3	30.8
LOC392563	1	0	9.3	7.8	10.8
IQCB1	1	-1	0.5	-9.3	10.2
ZMYND12	1	0	14.1	17	11.2
LINC01973	1	0	2.6	2.7	2.5
CDKL5	1	1	24.8	30	19.7
LOC440121	1	1	9.6	5.5	13.7
AFTPH	1	-1	-9.6	-14.7	-4.6
TRMT1	1	-1	-13.6	-29.1	1.8
IL1RAPL1	1	0	-14.1	-25	-3.2

The list goes on (5 carried over from the part before).
Target gene	reagent no.	two-siRNA summed score (-2 to +2)	mean protection from cisplatin (shift in death) (%)	protection from cisplatin (shift in death), siRNA C (%)	protection from cisplatin (shift in death), siRNA D (%)
CDKL5	1	1	24.8	30	19.7
LOC440121	1	1	9.6	5.5	13.7
AFTPH	1	-1	-9.6	-14.7	-4.6
TRMT1	1	-1	-13.6	-29.1	1.8
IL1RAPL1	1	0	-14.1	-25	-3.2
MDH1	1	0	2.7	20.5	-15
SPATA1	1	0	-3.7	-4.1	-3.2
TBC1D7	1	0	2.5	2.2	2.8
HNRNPA1P70	1	-1	-1.6	11.7	-14.9
TMEM81	1	0	24.6	37.2	11.9
WNT7B	1	0	-4.5	-4.7	-4.3
NCOA5	1	0	-5.2	-7.2	-3.2
LOC442495	1	0	4.3	0.7	7.9
TMC8	1	0	7.7	10.5	5
LOC286076	1	0	10.4	5.3	15.6
SLC67A1-AS	1	1	20.2	7.7	32.7
KLHDC10	1	-1	0.4	10.7	-10
LOC440732	1	0	6.5	4.4	8.7
ARAP3	1	0	2.5	-5	9.9
BTBD7	1	0	13.2	11	15.4
LOC441447	1	0	25	22.5	27.6
AADAC	1	1	-2.1	7.2	-11.4
TUBGCP6	1	-1	-1.2	16.7	-19.1
ZNF114	1	0	-4.8	-4.9	-4.6
LOC390738	1	1	9.4	9.6	9.3
KIAA1276	1	0	-2.3	-18	13.5
LOC389674	1	0	4.5	4.2	4.9
TNFRSF25	1	0	-2.5	1.7	-6.6
SLC26A3	1	0	-5.5	-7.3	-3.7
PRSS35	1	0	7.4	6	8.7
IFI27	1	1	15.7	5.6	25.9
FOXM1	1	0	5.1	14.2	-3.9
